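After a 5 h exposure, ER stress reporter signal in engineered HeLa cells is read as percent activation at the top dose. Percent activation relative to controls, where 0 is no effect and 100 is the full control effect; higher values mean stronger activation. Calls come from the fitted dose curve: active means a well-fitted activation curve with a big enough effect in repeat runs, inactive means a flat curve, and inconclusive means weak, mixed or opposite-direction curves.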

Values are in %. Every entry below has the call inconclusive. These entries are mostly ones the record files as inconclusive; other results of the assay are not listed here. An entry listed twice with the same setting is a separate test.

| # | compound | tested on / at | activation (%) |
|---|---|---|---|
| 1 | `CCOC(=O)[C@H](CCc1ccccc1)N[C@@H](C)C(=O)N1Cc2ccccc2C[C@H]1C(=O)O` | at 61 µM (top of the series) | 6.758 |
| 2 | `C[C@@H]1CC(=O)NN=C1c1ccc(NN=C(C#N)C#N)cc1` | at 61 µM (top of the series) | 0.7374 |
| 3 | `O=c1cc(-c2ccccc2)oc2ccccc12` | at 61 µM (top of the series) | -1.844 |
| 4 | `Cc1ccc(-n2[nH]c(C)c(N=Nc3cccc(-c4cccc(C(=O)O)c4)c3O)c2=O)cc1C` | at 61 µM (top of the series) | 0.1093 |
| 5 | `COC(=O)NCCC[Si](OC)(OC)OC` | at 61 µM (top of the series) | -8.379 |
| 6 | `CC1=NN(c2ccccc2)C(=O)C1` | at 61 µM (top of the series) | -2.848 |
| 7 | `COc1ccccc1/C=C/C=O` | at 61 µM (top of the series) | 0.2721 |
| 8 | `CS(=O)(=O)CCNCc1ccc(-c2ccc3ncnc(Nc4ccc(OCc5cccc(F)c5)c(Cl)c4)c3c2)o1` | at 61 µM (top of the series) | 16.34 |
| 9 | `COc1cc(C(C)C)c2c(c1)S(=O)(=O)N(COc1cc(=O)n3cccc(OCCN4CCCCC4)c3n1)C2=O` | at 28.5 µM (top of the series) | -7.726 |
| 10 | `O=C1Cc2cc(CCN3CCN(c4nsc5ccccc45)CC3)c(Cl)cc2N1` | at 61 µM (top of the series) | 1.179 |
| 11 | `CC(=O)c1ccc(S(=O)(=O)NC(=O)NC2CCCCC2)cc1` | at 61 µM (top of the series) | 11.4 |
| 12 | `Oc1ccc(Cl)cc1C1CCCC1` | at 61 µM (top of the series) | 14.5 |
| 13 | `CN(C)c1ccc(SC#N)cc1` | at 61 µM (top of the series) | -10.53 |
| 14 | `Cc1cc2c(cc1C(F)(F)F)N(C(=O)Nc1ccc(Oc3cccnc3C)nc1)CC2` | at 61 µM (top of the series) | 8.85 |
| 15 | `CCc1cc(Cc2cc(CC)c(N)c(CC)c2)cc(CC)c1N` | at 61 µM (top of the series) | -4.033 |
| 16 | `Cc1cc(F)ccc1-c1cc(N2CC[C@@H](O)[C@H]2CO)ncc1N(C)C(=O)C(C)(C)c1cc(C(F)(F)F)cc(C(F)(F)F)c1` | at 61 µM (top of the series) | -5.018 |
| 17 | `O=C1CCC/C=C\CCCCCCCCCC1` | at 61 µM (top of the series) | 0.0463 |
| 18 | `C[C@@H]1CC(=O)NN=C1c1ccc(NN=C(C#N)C#N)cc1` | at 61 µM (top of the series) | 0.2381 |
| 19 | `CC1(C)CCC[C@]2(C)[C@H]3CCO[C@]3(C)CC[C@@H]12` | at 61 µM (top of the series) | -4.111 |
| 20 | `CCN1CCC2(CC1)COc1cc3c(cc12)N(C(=O)c1ccc(-c2ccc(-c4nnc(C)o4)cc2C)cc1)CC3` | at 61 µM (top of the series) | -6.593 |
| 21 | `O=C1NC(=O)c2cc([N+](=O)[O-])ccc21` | at 78.8 µM (top of the series) | 2.453 |
| 22 | `CC(C)CC(C)(O)C#CC(C)(O)CC(C)C` (stereo not drawn) | at 61 µM (top of the series) | 2.509 |

Some entries from above, unchanged:

compound	tested on / at	activation (%)
Oc1ccc(Cl)cc1C1CCCC1	at 61 µM (top of the series)	14.5
CC(=O)c1ccc(S(=O)(=O)NC(=O)NC2CCCCC2)cc1	at 61 µM (top of the series)	11.4
COc1ccccc1/C=C/C=O	at 61 µM (top of the series)	0.2721

From PubChem BioAssay record AID1159516 (Tox21, 2015).